The values that follow come from patent US20110319338A1, “PEPTIDES THAT BIND EUKARYOTIC TRANSLATION INITIATION FACTOR 4E” (The Board of Regents of the University of Texas System, priority 2008, published 2011).

The chains behind the UniProt entries cited, without tags or fusion partners. Residues count along the entry.
UniProt P06730, residues 2-217: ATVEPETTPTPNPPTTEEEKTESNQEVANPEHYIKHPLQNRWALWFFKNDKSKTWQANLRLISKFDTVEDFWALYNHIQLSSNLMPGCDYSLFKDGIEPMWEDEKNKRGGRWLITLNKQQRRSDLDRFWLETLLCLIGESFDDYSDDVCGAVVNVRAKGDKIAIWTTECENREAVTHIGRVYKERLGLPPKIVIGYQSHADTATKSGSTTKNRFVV

These are yes or no findings as the source states them, for the method shown. Binding seen in cells or lysates may run through a third protein. Some results given as binding are weak or reduced against the parent protein; the word gives no strength.

The target in assay [1] is eukaryotic translation initiation factor 4E (UniProt P06730). In words: streptavidin-agarose pull-down from OVCAR-3 lysate, eIF4E Western blot. (A western blot detects proteins with antibodies after separation by electrophoresis.)
Assay [2] has the same target. Description: streptavidin-agarose pull-down of biotinylated peptide (3 micromoles per liter) from OVCAR-3 lysate, eIF4E Western blot.

On to GTRIIYDRKFLLDRRNSPMA (peptide, UniProt Q13542 49-68, looked up, biotinylated (site not stated)) [4EBP2-WT peptide containing the corresponding region (residues 49-68) of 4EBP2], for which the binding result in assay [1] and in assay [2] was “binds” each time.
